The assay addresses his tagged human LAIR1 recombinant protein (human) (UniProt Q6GTX8). Kind of assay: BLI; Octet RED96: NTA biosensors capture his tagged human LAIR1 (20 μg/ml); h219 or control antibody h94 (40 μg/ml) loaded; then collagen I (80 μg/ml) binding signal detected; both purified.

The chains behind the UniProt entries cited, without tags or fusion partners. Where a name states a change or a piece, a line headed by the entry shows the natural chain unless it says otherwise.
UniProt Q6GTX8: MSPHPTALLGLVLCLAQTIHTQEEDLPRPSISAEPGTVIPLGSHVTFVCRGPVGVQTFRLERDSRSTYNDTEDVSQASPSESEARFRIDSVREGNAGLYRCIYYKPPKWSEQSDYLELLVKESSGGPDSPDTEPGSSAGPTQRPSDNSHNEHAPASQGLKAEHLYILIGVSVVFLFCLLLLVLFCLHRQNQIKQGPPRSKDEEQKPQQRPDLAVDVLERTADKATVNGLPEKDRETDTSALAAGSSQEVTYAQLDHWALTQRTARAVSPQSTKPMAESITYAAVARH
UniProt P02452: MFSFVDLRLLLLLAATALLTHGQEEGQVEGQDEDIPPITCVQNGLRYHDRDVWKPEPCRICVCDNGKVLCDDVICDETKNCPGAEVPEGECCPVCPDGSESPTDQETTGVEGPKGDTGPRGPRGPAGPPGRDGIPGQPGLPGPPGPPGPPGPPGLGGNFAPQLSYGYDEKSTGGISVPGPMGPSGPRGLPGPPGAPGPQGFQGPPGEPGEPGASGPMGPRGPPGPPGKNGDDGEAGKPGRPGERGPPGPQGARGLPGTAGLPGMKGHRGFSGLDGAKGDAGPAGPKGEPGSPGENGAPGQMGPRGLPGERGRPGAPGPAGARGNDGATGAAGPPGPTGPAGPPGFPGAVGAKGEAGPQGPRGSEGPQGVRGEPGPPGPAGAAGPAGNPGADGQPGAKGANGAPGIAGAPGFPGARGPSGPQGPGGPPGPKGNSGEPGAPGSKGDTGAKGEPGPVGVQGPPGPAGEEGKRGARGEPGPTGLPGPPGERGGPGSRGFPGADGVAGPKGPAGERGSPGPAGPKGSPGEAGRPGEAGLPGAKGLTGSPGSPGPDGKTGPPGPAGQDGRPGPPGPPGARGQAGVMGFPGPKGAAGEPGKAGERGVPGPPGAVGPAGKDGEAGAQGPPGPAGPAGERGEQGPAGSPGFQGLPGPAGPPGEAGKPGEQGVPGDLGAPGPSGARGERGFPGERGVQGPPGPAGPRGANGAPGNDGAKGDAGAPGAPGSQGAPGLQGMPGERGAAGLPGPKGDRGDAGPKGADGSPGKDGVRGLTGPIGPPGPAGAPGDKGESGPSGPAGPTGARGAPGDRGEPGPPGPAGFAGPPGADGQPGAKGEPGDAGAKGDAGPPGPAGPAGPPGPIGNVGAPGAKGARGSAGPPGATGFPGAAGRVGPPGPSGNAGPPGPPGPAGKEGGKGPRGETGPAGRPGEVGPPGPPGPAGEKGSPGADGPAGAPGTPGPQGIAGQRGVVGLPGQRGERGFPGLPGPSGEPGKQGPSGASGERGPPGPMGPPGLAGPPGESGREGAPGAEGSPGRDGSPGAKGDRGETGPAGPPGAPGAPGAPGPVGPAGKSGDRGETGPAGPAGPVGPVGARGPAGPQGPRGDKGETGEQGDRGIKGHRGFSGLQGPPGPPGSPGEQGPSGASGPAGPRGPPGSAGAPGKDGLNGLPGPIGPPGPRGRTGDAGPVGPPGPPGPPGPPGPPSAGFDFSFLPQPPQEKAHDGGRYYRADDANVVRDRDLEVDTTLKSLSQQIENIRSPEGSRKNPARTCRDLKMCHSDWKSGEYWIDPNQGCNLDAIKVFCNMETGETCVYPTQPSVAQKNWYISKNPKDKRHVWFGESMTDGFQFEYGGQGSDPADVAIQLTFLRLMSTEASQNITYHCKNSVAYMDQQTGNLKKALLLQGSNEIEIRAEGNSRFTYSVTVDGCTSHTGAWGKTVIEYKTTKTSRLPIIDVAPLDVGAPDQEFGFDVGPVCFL

These are yes or no findings as the source states them, for the method shown. Binding calls can cover weak binding; strength is not graded here.

Take “Collagen I (from UniProt P02452 162-1218; P08123 80-1119)”: the binding entry was “binds”.

For the origin of these results see paper PMC9534319.
